# Results from patent US20260049115A1.
# No constants are given. Whether binding was seen depends on the method and setting. For some of these results: Binding calls can cover weak binding; strength is not graded here. Sequences can lack the tags named with a protein.
# Experiments:
# collagen type I [1] = assay: ELISA on plates coated with collagen I (n=4) [panel D]
# collagen type I [2] = assay: ELISA, collagen I coated
# collagen type III [3] = assay: ELISA on plates coated with collagen III
# collagen type III [4] = assay: ELISA on plates coated with collagen III [panel C]
# collagen type I [5] = assay: ELISA on plates coated with collagen I [panel C]
# collagen type I [6] = assay: ELISA on plates coated with collagen I
# collagen type I [7] = assay: SPR, collagen I on chip
binder,measurement,setting,value
CBD-fused IL-2 recombinant protein (the vWF A3 domain and mouse IL-2 fusion protein) (protein) CSQPLDVILLLDGSSSFPASYFDEMKSFAKAFISKANIGPRLTQVSVLQYGSITTIDVPWNVVPEKAHLLSLVDVMQREGGPSQIGDALGFAVRYLTSEMHGARPGASKAVVILVTDVSVDSVDAAADAARSNRVTVFPIGIGDRYDAAQLRILAGPAGDSNVVKLQRIEDLPTMVTLGNSFLHKLCSGFVRIGGGSGGGSPTSSSTSSSTAEAQQQQQQQQQQQQHLEQLLMDLQELLSRMENYRNLKLPRMLTFKFYLPKQATELKDLQCLEDELGPLRHVLDLTQSKSFQLEDAENFISNIRVTVVKLKGSDNTFECQFDDESATVVDFLRRWIAFCQSIISTSPQ,binding,collagen type I [1],binds
same,binding,collagen type I [2],binds
wild-type mouse IL-2 (His-tagged) (ligand) PTSSSTSSSTAEAQQQQQQQQQQQQHLEQLLMDLQELLSRMENYRNLKLPRMLTFKFYLPKQATELKDLQCLEDELGPLRHVLDLTQSKSFQLEDAENFISNIRVTVVKLKGSDNTFECQFDDESATVVDFLRRWIAFCQSIISTSPQ,binding,collagen type III [3],no binding
same,binding,collagen type III [4],no binding
same,binding,collagen type I [5],no binding
same,binding,collagen type I [6],no binding
CBD-CCL4 (human vWF A3 domain and murine CCL4 fusion protein) (protein) CSQPLDVILLLDGSSSFPASYFDEMKSFAKAFISKANIGPRLTQVSVLQYGSITTIDVPWNVVPEKAHLLSLVDVMQREGGPSQIGDALGFAVRYLTSEMHGARPGASKAVVILVTDVSVDSVDAAADAARSNRVTVFPIGIGDRYDAAQLRILAGPAGDSNVVKLQRIEDLPTMVTLGNSFLHKLCSGFVRIGGGGSGGGGSAPMGSDPPTSCCFSYTSRQLHRSFVMDYYETSSLCSKPAVVFLTKRGRQICANPSEPWVTEYMSDLELNHHHHHH,binding,collagen type I [7],binds
